First the molecules themselves.
B1: SIRP3 (antibody, mouse IgG1, kappa, V domains shown)
VH: EVQLQQSGPEVVKPGASVKMSCKASGYTFTSYVMHWVKQKPGQGLEWIGYINPYNDGPKYNEKFKGKATLTSDKSSSTAYMELSSLTSEDSAVYFCARWDYFNSASGFAFWGQGTLVTVSA
VL: EIVLTQSPTTMAASPGEKITIICSASSIIGSDFLHWYQQRPGFSPKFLIYRTSILASGVPTRFTGSGSGTSYSLTIGTMEAEDVATYYCQQGSGLPLTFGSGTKLEMKR
notes: Hybridoma-derived mouse mAb
B2: SIRP9 (antibody, V domains shown)
VH: EVQLQESGAELVRPGASVKLSCKALGYTFTDYEIHWVKETPVYGLEWIGDIHPGSGGTANNQKFKGKATLTADKSSNTAYMELSSLTSEDSAVYYCTRAVSGYYAMDYWGQGTSVTVSS
VL: DIQMTQSSSSFSGSLGDRLTINCKASEDIYDRVAWYQQKPGNAPRLLISGTASLETGVLSRFSGSGSGKDYTLSINGLQAEDVATYYCQQYWTTPWTFGGGTKLEIK
notes: detected with anti-mouse secondary antibody in the cell assays
B3: SIRP5 (antibody, V domains shown)
VH: QVQLQQSAAELARPGASVKMSCKASGYTFTSYTMHWVKQRPGQGLEWIGYINPTIGYTEYNQKFKDKTTLTADKSSSTAYMQLSSLTSEDSAVYYCVRLVITSVLGRAMDYWGQGTSVTVSS
VL: QIVLTQSPALMSASPGEKVTMTCSASSSVSYMYWFQQKPRSSPKPWIYLTSNLASGVPARFSGSGSGTSYSLTISSMEAEDAATYYCQQWSGNPFTFGSGTKLEIK
B4: SIRP4 (antibody, V domains shown)
VH: EVQLQQSGPDLVKPGASVKISCKASGYSFTDYFLNWVKQSHGKSLEWIGRINPYNGDSFINQNFRDKATLTVDKSSTTAHMDLLSLTSEDSAIYYCGRGGYDGYFIAYFDYWGQGSLVTVSA
VL: DIKLTQSQSSMYSSLGQRVTITCKASQDINSHLSWFQEKPGKSPKTLIYRANRLADGVPSRFSGSGSGQDYFLTISSLEYEDVGIYYCLQYDEFPYTFGGGTKLEIK
notes: as for B2
B5: SIRP2 (antibody, mouse IgG1, kappa, V domains shown)
VH: EVKLVESGGGLVQPGGSLKLSCAASGFSFSGCTMSWIRQTPERRLEWVAYISNGGDITYYPDTVKGRFTISRDNAKNSLYLQMSSLKSEDTAMYYCARLDGYYYAMDFWGQGTSVTVSS
VL: DILLTQSPAILSVSPGERVSFSCRASQSIGTSIHWYQQRTNGSPRLLIKYGSESISGIPSRFSGSGSGTDFTLSINSVESEDIADYYCQQSNTWPLTFGDGTKLELKR
notes: Hybridoma-derived mouse mAb

By UniProt entry, the sequences of proteins in these tests, tags left out. Residues count along the entry.
UniProt P78324, residues 31-504: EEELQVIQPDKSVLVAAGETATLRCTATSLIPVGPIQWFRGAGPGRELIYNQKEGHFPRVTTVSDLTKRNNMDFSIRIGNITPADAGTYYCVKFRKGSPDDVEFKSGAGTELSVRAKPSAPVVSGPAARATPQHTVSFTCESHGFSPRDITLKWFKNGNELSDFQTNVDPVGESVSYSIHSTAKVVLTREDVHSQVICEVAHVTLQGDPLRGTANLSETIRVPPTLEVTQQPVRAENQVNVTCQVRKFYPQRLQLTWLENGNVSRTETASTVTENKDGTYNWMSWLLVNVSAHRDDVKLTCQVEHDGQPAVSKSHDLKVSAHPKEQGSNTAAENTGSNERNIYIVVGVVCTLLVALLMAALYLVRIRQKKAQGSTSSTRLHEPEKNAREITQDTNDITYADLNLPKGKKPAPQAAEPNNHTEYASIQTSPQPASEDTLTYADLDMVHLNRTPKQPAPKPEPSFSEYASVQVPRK

Results are given in words; binding and its absence hold for the method and conditions named. Some results given as binding are weak or reduced against the parent protein; the word gives no strength.

One assay addresses T1, human SIRPα expressed on cells (human, UniProt P78324 31-504).
T1 construct: whole, on cells; Endogenous SIRPα of THP-1 cells and of donor-derived macrophages and dendritic cells; also called SIRPα expressing THP-1 cells; cell-expressed SIRPα on dendritic cells and/or macrophages
In words: flow cytometry on human macrophages and/or dendritic cells.
Regarding B1, the binding result is “binds”.

For B2, the binding entry is on record as “binds”.

For the molecule B3, the binding result is “binds”.

As for B4, the binding result was “binds”.

The next assay addresses T1, human SIRPα expressed on cells. In words: flow cytometry on THP-1 cells (FIG. 2).
In the case of B1, the binding result was “binds”.

As for B5, the binding result is recorded as “binds”.

The values are drawn from patent publication US20200297842A1 (published 2020).
